≈ marks a conversion by molar mass, not a printed value.
System: Escherichia coli (ATCC: 25922)
Assay: Antibacterial minimal inhibitory concentration
Format: cell-based
Conditions: 24 h, read-out: Minimum Inhibition concentration (MIC)
Outline: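 Test compounds were stocked at 20 mg/mL in DMSO. Ampicillin was run as standard drug and DMSO as negative control. MIC reported in μM.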

Compound `CC1(C)S[C@@H]2[C@H](NC(=O)[C@H](N)c3ccccc3)C(=O)N2[C@H]1C(=O)O` [Ampicillin, reference compound] has an MIC of 3.5 µM (≈ 1.22 µg/mL).

From paper PMC9670593 (Journal of Molecular Liquids, 2022)
